Experimental findings from patent publication US9938322B2 (priority 2013, dated 2018) are described below.

Some peptides are written in HELM: one residue between dots, names in brackets for other building blocks, links after the first $. Where no end group is shown, it is not given here. [ ]: non-standard residue; d: D form. dDab = NCC[C@@H](N)C(=O)O; Orn = NCCC[C@H](N)C(=O)O; Dab = NCC[C@H](N)C(=O)O

The nature of this data set: general procedure: Fmoc solid-phase peptide synthesis; preloaded Fmoc-amino acid 2-chlorotrityl resins. The note with it: whole synthesis, scale of the general procedure approximately 80 mg resin per vessel.
Take “PEPTIDE1{Y.S.Y.[Dab].[Orn].[DDab].[Dab].W.[Dab].[tBuGly].A.Y.[dP].P}$PEPTIDE1,PEPTIDE1,1:R1-14:R2$$$V2.0”: the “purity (crude or final not stated)” value worked out at 95%.

Turning to “PEPTIDE1{I.[alloThr].Y.[Dab].[Orn].[D-Dab].[Dab].W.[Dab].[tBuGly].A.S.[dP].P}$PEPTIDE1,PEPTIDE1,1:R1-14:R2$$$V2.0”, the “purity (crude or final not stated)” value worked out at 90%. As for “PEPTIDE1{L.S.Y.[Dab].[Orn].[DDab].[Dab].W.R.[tBuGly].A.S.[dP].P}$PEPTIDE1,PEPTIDE1,1:R1-14:R2$$$V2.0”, the “purity (crude or final not stated)” value was 90%.

Consider “PEPTIDE1{[Nva].A.Y.[Dab].[Dab].[DDab].[Dab].W.[Dab].[Chg].S.T.[dP].P}$PEPTIDE1,PEPTIDE1,1:R1-14:R2$$$V2.0”, for which the “purity (crude or final not stated)” value stood at 93%. The result for “PEPTIDE1{[Nva].S.[tBuGly].[Dab].[Orn].[DDab].[Dab].W.[Dab].[Chg].A.S.[dP].P}$PEPTIDE1,PEPTIDE1,1:R1-14:R2$$$V2.0” reads 91%; that for “PEPTIDE1{W.S.[tBuGly].[Dab].[Orn].[D-Dab].[Dab].W.[Dab].[tBuGly].A.S.[dP].P}$PEPTIDE1,PEPTIDE1,1:R1-14:R2$$$V2.0”, 86%. Under “PEPTIDE1{L.S.[Cha].[Dab].[Orn].[DDab].[Dab].W.[Dab].[tBuGly].A.S.[dP].P}$PEPTIDE1,PEPTIDE1,1:R1-14:R2$$$V2.0” stands 92%; under “PEPTIDE1{L.S.Y.[Dab].[Orn].[DDab].[Orn].W.[Dab].[tBuGly].A.S.[dP].P}$PEPTIDE1,PEPTIDE1,1:R1-14:R2$$$V2.0”, 92%; under “PEPTIDE1{L.S.Y.[Dab].[Orn].[DDab].[Dab].W.[Dab].Y.A.S.[dP].P}$PEPTIDE1,PEPTIDE1,1:R1-14:R2$$$V2.0”, 89%. On to “PEPTIDE1{L.S.[Cha].[Dab].[Orn].[Dab].[Dab].W.[Dab].[tBuGly].S.S.[dP].P}$PEPTIDE1,PEPTIDE1,1:R1-14:R2$$$V2.0”, for which the “purity (crude or final not stated)” value amounted to 86%. As to “PEPTIDE1{L.S.Y.[Dab].[Orn].[DDab].[Dab].W.[Dap].[tBuGly].A.S.[dP].P}$PEPTIDE1,PEPTIDE1,1:R1-14:R2$$$V2.0”, the “purity (crude or final not stated)” value was 87%. Under “PEPTIDE1{T.S.Y.[Dab].[Orn].[DDab].[Dab].W.[Dab].[tBuGly].A.L.[dP].P}$PEPTIDE1,PEPTIDE1,1:R1-14:R2$$$V2.0” stands 93%; under “PEPTIDE1{W.A.Y.[Dab].[Orn].[DDab].[Dab].W.[Dab].[tBuGly].A.S.[dP].P}$PEPTIDE1,PEPTIDE1,1:R1-14:R2$$$V2.0”, 91%. With “Leu-Ala(3PyrMeUr)-Cha-Dab-Orn-^DDab-Dab-Trp-Dab-tBuGly-Ala-Ser-^DPro-Pro”, the “purity (crude or final not stated)” value was 82%. Under “PEPTIDE1{[Nva].S.[Cha].[Dab].[Orn].[DDab].[Dab].W.[Dab].[Chg].A.S.[dP].P}$PEPTIDE1,PEPTIDE1,1:R1-14:R2$$$V2.0” stands 94%; under “Ala(2ClPhUr)-Ala-Cha-Dab-Orn-^DDab-Dab-Trp-Dab-tBuGly-Ala-Ser-^DPro-Pro”, 87%; under “Leu-Ala-Cha-Dab-Orn-^DDab-Dab-Trp-Dab-tBuGly-Alb-Ser-^DPro-Pro((3S)OH)”, 90%. The result for “PEPTIDE1{L.[Ala(iPrUr)].[Cha].[Dab].[Orn].[DDab].[Dab].W.[Dab].[tBuGly].A.S.[dP].P}$PEPTIDE1,PEPTIDE1,1:R1-14:R2$$$V2.0” reads 91%. Under “PEPTIDE1{W.S.[Cha].[Dab].[Orn].[DDap].[Dab].W.[Dab].[tBuGly].A.S.[dP].P}$PEPTIDE1,PEPTIDE1,1:R1-14:R2$$$V2.0” stands 98%; under “PEPTIDE1{W.A.Y.[Dab].[Orn].[D-Dab].[Dab].W.[Dab].[Chg].A.S.[dP].P}$PEPTIDE1,PEPTIDE1,1:R1-14:R2$$$V2.0”, 94%. As for “PEPTIDE1{I.N.Y.[Dab].[Orn].[D-Dab].[Dab].W.[Dab].[tBuGly].A.S.[dP].P}$PEPTIDE1,PEPTIDE1,1:R1-14:R2$$$V2.0”, the “purity (crude or final not stated)” value came out at 86%.

Turning to “Trp-Ala-Cha-Dab-Orn-^DDab-Dab-Trp-Dab-tBuGly-Tza-Ser-^DPro-Pro”, the “purity (crude or final not stated)” value is reported as 91%.

Turning to “PEPTIDE1{W.S.Y.[Dab].[Orn].[D-Dab].[Dab].W.[Dab].V.A.S.[dP].P}$PEPTIDE1,PEPTIDE1,1:R1-14:R2$$$V2.0”, the “purity (crude or final not stated)” value is listed as 95%.

With “PEPTIDE1{L.S.Y.[Dab].[Orn].[DDab].[Dab].W.K.[tBuGly].A.S.[dP].P}$PEPTIDE1,PEPTIDE1,1:R1-14:R2$$$V2.0”, the “purity (crude or final not stated)” value was 93%. On to “PEPTIDE1{L.S.Y.[Dab].R.[DDab].[Dab].W.[Dab].[tBuGly].A.S.[dP].P}$PEPTIDE1,PEPTIDE1,1:R1-14:R2$$$V2.0”, for which the “purity (crude or final not stated)” value was found to be 91%. The result for “PEPTIDE1{W.[Dap].[Cha].[Dab].[Orn].[DDab].[Dab].W.[Dab].[tBuGly].A.S.[dP].P}$PEPTIDE1,PEPTIDE1,1:R1-14:R2$$$V2.0” reads 95%. Under “PEPTIDE1{L.A.Y.[Dab].[Orn].[DDab].[Dab].W.[Dab].[tBuGly].S.T.[dP].P}$PEPTIDE1,PEPTIDE1,1:R1-14:R2$$$V2.0” stands 85%. The result for “PEPTIDE1{L.S.W.[Dab].[Orn].[DDab].[Dab].W.[Dab].[tBuGly].A.S.[dP].P}$PEPTIDE1,PEPTIDE1,1:R1-14:R2$$$V2.0” reads 91%; that for “PEPTIDE1{V.S.Y.[Dab].[Orn].[DDab].[Dab].W.[Dab].[tBuGly].A.S.[dP].P}$PEPTIDE1,PEPTIDE1,1:R1-14:R2$$$V2.0”, 88%; that for “PEPTIDE1{L.D.Y.[Dab].[Orn].[D-Dab].[Dab].W.[Dab].[tBuGly].[Dab].S.[dP].P}$PEPTIDE1,PEPTIDE1,1:R1-14:R2$$$V2.0”, 94%.

With “PEPTIDE1{L.D.Y.[Dab].[Orn].[D-Dab].[Dab].W.[Dab].[tBuGly].N.S.[dP].P}$PEPTIDE1,PEPTIDE1,1:R1-14:R2$$$V2.0”, the “purity (crude or final not stated)” value was 95%. With “PEPTIDE1{I.A.Y.[Dab].[Dab].[DDab].[Dab].W.[Dab].[tBuGly].T.T.[dP].P}$PEPTIDE1,PEPTIDE1,1:R1-14:R2$$$V2.0”, the “purity (crude or final not stated)” value was 94%. Regarding “PEPTIDE1{I.S.[tBuGly].[Dab].[Orn].[DDab].[Dab].W.[Dab].[Chg].A.S.[dP].P}$PEPTIDE1,PEPTIDE1,1:R1-14:R2$$$V2.0”, the “purity (crude or final not stated)” value is recorded as 93%.

“PEPTIDE1{L.S.W.[Dab].[Orn].[DDab].[Dab].W.[Dab].W.A.S.[dP].P}$PEPTIDE1,PEPTIDE1,1:R1-14:R2$$$V2.0”: the “purity (crude or final not stated)” value was 92%.

“Trp-Ala(3PyrMeUr)-Cha-Dab-Orn-^DDab-Dab-Trp-Dab-tBuGly-Ala-Ser-^DPro-Pro”: the “purity (crude or final not stated)” value stood at 92%. The result for “LSY[Dab][Orn][dDab][Dab]W[Dab]Y(Me)AS[dP]P” reads 90%; that for “PEPTIDE1{L.A.Y.[Dab].[Orn].[D-Dab].[Dab].W.[Dab].[Cha].A.S.[dP].P}$PEPTIDE1,PEPTIDE1,1:R1-14:R2$$$V2.0”, 89%; that for “PEPTIDE1{L.S.Y.[Dab].[Orn].[DDab].[Dab].W.[Dab].[Chg].A.S.[dP].P}$PEPTIDE1,PEPTIDE1,1:R1-14:R2$$$V2.0”, 85%. Under “PEPTIDE1{I.A.Y.[Dab].[Orn].[D-Dab].[Dab].W.[Dab].[tBuGly].A.S.[dP].P}$PEPTIDE1,PEPTIDE1,1:R1-14:R2$$$V2.0” stands 89%. The result for “PEPTIDE1{W.[Dap].[Cha].[Dab].[Orn].[DDab].[Dab].W.[Dab].[tBuGly].[Ser(Me)].S.[dP].P}$PEPTIDE1,PEPTIDE1,1:R1-14:R2$$$V2.0” reads 97%.

Take “Trp-Dap-Cha-Dab-Orn-Pip-Dab-Trp-Dab-tBuGly-Ala-Ser-^DPro-Pro”: the “purity (crude or final not stated)” value is listed as 93%. The result for “PEPTIDE1{W.A.[Cha].[Dab].[Orn].[Dab].[Dab].W.[Dab].[tBuGly].[Ser(Me)].S.[dP].P}$PEPTIDE1,PEPTIDE1,1:R1-14:R2$$$V2.0” reads 93%; that for “PEPTIDE1{L.S.Y.[Dab].[Orn].[DDab].[Dab].W.[Dab].[Nva].A.S.[dP].P}$PEPTIDE1,PEPTIDE1,1:R1-14:R2$$$V2.0”, 81%. The result for “PEPTIDE1{W.S.[tBuGly].[Dab].[Orn].[D-Dab].[Dab].W.[Dab].[Nva].A.S.[dP].P}$PEPTIDE1,PEPTIDE1,1:R1-14:R2$$$V2.0” reads 92%; that for “PEPTIDE1{L.S.Y.[Dab].[Dab].[DDab].[Dab].W.[Dab].[tBuGly].A.S.[dP].P}$PEPTIDE1,PEPTIDE1,1:R1-14:R2$$$V2.0”, 91%; that for “PEPTIDE1{I.S.Y.[Dab].[Orn].[D-Dab].[Dab].W.[Dab].I.A.S.[dP].P}$PEPTIDE1,PEPTIDE1,1:R1-14:R2$$$V2.0”, 88%. Consider “PEPTIDE1{W.S.[Cha].[Dab].[Orn].[Dab].[Dab].W.[Dab].[tBuGly].A.S.[dP].P}$PEPTIDE1,PEPTIDE1,1:R1-14:R2$$$V2.0”, for which the “purity (crude or final not stated)” value was 96%. Under “PEPTIDE1{L.T.Y.[Dab].[Dab].[D-Dab].[Dab].W.[Dab].[tBuGly].S.T.[dP].P}$PEPTIDE1,PEPTIDE1,1:R1-14:R2$$$V2.0” stands 88%.

For “PEPTIDE1{V.S.Y.[Dab].[Orn].[Dab].[Dab].W.[Dab].[tBuGly].A.S.[dP].P}$PEPTIDE1,PEPTIDE1,1:R1-14:R2$$$V2.0”, the “purity (crude or final not stated)” value was found to be 87%. Consider “PEPTIDE1{L.S.Y.[Dab].K.[DDab].[Dab].W.[Dab].[tBuGly].A.S.[dP].P}$PEPTIDE1,PEPTIDE1,1:R1-14:R2$$$V2.0”, for which the “purity (crude or final not stated)” value is 86%.
